{
  "source": "ChEMBL document CHEMBL5137074",
  "about": "(J Med Chem, 2022)",
  "key": {"[1]": {"experiment": "Plasma protein binding in rat at 1 uM"}, "[2]": {"settings": "Sprague-Dawley, rat, in vivo, po, 5 mg/kg, 24 h"}, "[3]": {"experiment": "Metabolic stability in human hepatocytes assessed as intrinsic clearance measured per 10^6 cells"}, "[4]": {"settings": "rat, in vivo, iv, 1 mg/kg, 24 h"}},
  "data": [
    {"molecule": "Cc1ccc(O)c(C)c1-n1c(N)c(C(N)=O)c2nc(C)c(C)nc21", "values": [
      {"measurement": "PPB", "setting": "[1]", "result": 89.2, "unit": "%"},
      {"measurement": "F", "setting": "[2]", "result": 20, "unit": "%"},
      {"measurement": "CLH", "setting": "[3]", "result": "< 3", "unit": "µL/min"},
      {"measurement": "CL free", "setting": "[4]", "result": 505, "unit": "mL/min/kg"}
    ]}
  ]
}
